# No constants are given. Whether binding was seen depends on the method and setting. In cells and extracts the contact can be indirect. A yes stands for co-enrichment or nearness to the bait. Other partners may have been found.
# Protein sequences, listed by entry. Tags and fused reporters are not part of them.
# UniProt O22467: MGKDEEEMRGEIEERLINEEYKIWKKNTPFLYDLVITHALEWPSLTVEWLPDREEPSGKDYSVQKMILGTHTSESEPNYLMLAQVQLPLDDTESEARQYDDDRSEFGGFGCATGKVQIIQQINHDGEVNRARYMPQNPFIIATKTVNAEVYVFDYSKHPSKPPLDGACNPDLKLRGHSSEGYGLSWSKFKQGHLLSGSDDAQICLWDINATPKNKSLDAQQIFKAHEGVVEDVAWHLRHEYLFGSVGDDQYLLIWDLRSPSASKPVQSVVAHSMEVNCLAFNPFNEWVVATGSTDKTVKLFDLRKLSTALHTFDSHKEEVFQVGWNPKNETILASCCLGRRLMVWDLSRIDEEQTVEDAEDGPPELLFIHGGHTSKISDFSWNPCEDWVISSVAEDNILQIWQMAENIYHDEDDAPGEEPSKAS
# UniProt Q9FIE3: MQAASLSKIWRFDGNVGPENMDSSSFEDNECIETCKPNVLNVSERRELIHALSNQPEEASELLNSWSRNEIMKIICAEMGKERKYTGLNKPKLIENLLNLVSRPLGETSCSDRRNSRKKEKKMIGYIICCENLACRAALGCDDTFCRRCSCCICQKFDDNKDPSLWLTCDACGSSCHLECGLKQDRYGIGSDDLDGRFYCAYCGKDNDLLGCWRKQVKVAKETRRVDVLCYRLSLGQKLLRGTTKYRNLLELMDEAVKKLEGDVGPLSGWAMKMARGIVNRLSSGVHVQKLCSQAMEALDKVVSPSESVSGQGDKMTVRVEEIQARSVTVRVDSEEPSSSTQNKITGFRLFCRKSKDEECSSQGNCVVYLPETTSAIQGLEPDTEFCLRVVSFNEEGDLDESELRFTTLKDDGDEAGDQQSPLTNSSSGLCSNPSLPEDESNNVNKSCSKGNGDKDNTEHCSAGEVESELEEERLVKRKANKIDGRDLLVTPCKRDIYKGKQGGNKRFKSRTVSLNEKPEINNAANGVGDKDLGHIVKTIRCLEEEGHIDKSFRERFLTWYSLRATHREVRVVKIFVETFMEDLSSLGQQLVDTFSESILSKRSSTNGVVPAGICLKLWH
# T1: VRN5-SYFP2 wild-type (pVRN5::VRN5-SYFP2) (Arabidopsis thaliana) (UniProt Q9LHF5)
# T1 sequence: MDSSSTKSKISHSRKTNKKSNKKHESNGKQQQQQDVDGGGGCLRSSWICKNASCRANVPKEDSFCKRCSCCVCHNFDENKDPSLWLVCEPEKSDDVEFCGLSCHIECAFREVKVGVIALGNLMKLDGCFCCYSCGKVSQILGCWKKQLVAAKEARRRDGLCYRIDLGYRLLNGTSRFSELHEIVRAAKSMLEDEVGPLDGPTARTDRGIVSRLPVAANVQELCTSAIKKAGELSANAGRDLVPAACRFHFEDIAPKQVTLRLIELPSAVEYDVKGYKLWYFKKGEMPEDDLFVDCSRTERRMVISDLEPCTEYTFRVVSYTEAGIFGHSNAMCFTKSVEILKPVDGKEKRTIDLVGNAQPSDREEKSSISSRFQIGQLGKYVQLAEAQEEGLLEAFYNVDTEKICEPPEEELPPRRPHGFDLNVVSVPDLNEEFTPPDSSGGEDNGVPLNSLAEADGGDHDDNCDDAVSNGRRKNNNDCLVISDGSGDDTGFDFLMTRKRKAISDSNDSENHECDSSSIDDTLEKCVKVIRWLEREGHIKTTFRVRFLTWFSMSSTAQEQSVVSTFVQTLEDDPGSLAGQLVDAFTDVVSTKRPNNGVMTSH
# Molecular target: T1, VRN5-SYFP2 wild-type (pVRN5::VRN5-SYFP2) (Arabidopsis thaliana)
# Experiment: affinity purification with mass spectrometry
row,Molecule,binding
1,MSI1 (PRC2 core subunit) (from UniProt O22467 1-424),binds
2,VIN3 (endogenous) (from UniProt Q9FIE3 1-620),binds
3,"FIE (PRC2 core subunit) (protein, UniProt Q9LT47 1-369) MSKITLGNESIVGSLTPSNKKSYKVTNRIQEGKKPLYAVVFNFLDARFFDVFVTAGGNRITLYNCLGDGAISALQSYADEDKEESFYTVSWACGVNGNPYVAAGGVKGIIRVIDVNSETIHKSLVGHGDSVNEIRTQPLKPQLVITASKDESVRLWNVETGICILIFAGAGGHRYEVLSVDFHPSDIYRFASCGMDTTIKIWSMKEFWTYVEKSFTWTDDPSKFPTKFVQFPVFTASIHTNYVDCNRWFGDFILSKSVDNEILLWEPQLKENSPGEGASDVLLRYPVPMCDIWFIKFSCDLHLSSVAIGNQEGKVYVWDLKSCPPVLITKLSHNQSKSVIRQTAMSVDGSTILACCEDGTIWRWDVITK",binds
4,"SWN (PRC2 core subunit) (protein, UniProt Q9ZSM8 1-856) MVTDDSNSSGRIKSHVDDDDDGEEEEDRLEGLENRLSELKRKIQGERVRSIKEKFEANRKKVDAHVSPFSSAASSRATAEDNGNSNMLSSRMRMPLCKLNGFSHGVGDRDYVPTKDVISASVKLPIAERIPPYTTWIFLDRNQRMAEDQSVVGRRQIYYEQHGGETLICSDSEEEPEPEEEKREFSEGEDSIIWLIGQEYGMGEEVQDALCQLLSVDASDILERYNELKLKDKQNTEEFSNSGFKLGISLEKGLGAALDSFDNLFCRRCLVFDCRLHGCSQPLISASEKQPYWSDYEGDRKPCSKHCYLQLKAVREVPETCSNFASKAEEKASEEECSKAVSSDVPHAAASGVSLQVEKTDIGIKNVDSSSGVEQEHGIRGKREVPILKDSNDLPNLSNKKQKTAASDTKMSFVNSVPSLDQALDSTKGDQGGTTDNKVNRDSEADAKEVGEPIPDNSVHDGGSSICQPHHGSGNGAIIIAEMSETSRPSTEWNPIEKDLYLKGVEIFGRNSCLIARNLLSGLKTCLDVSNYMRENEVSVFRRSSTPNLLLDDGRTDPGNDNDEVPPRTRLFRRKGKTRKLKYSTKSAGHPSVWKRIAGGKNQSCKQYTPCGCLSMCGKDCPCLTNETCCEKYCGCSKSCKNRFRGCHCAKSQCRSRQCPCFAAGRECDPDVCRNCWVSCGDGSLGEAPRRGEGQCGNMRLLLRQQQRILLGKSDVAGWGAFLKNSVSKNEYLGEYTGELISHHEADKRGKIYDRANSSFLFDLNDQYVLDAQRKGDKLKFANHSAKPNCYAKVMFVAGDHRVGIFANERIEASEELFYDYRYGPDQAPVWARKPEGSKKDDSAITHRRARKHQSH",binds
5,"CURLY LEAF (CLF), PRC2 methyltransferase (protein, UniProt P93831 1-902) MASEASPSSSATRSEPPKDSPAEERGPASKEVSEVIESLKKKLAADRCISIKKRIDENKKNLFAITQSFMRSSMERGGSCKDGSDLLVKRQRDSPGMKSGIDESNNNRYVEDGPASSGMVQGSSVPVKISLRPIKMPDIKRLSPYTTWVFLDRNQRMTEDQSVVGRRRIYYDQTGGEALICSDSEEEAIDDEEEKRDFLEPEDYIIRMTLEQLGLSDSVLAELASFLSRSTSEIKARHGVLMKEKEVSESGDNQAESSLLNKDMEGALDSFDNLFCRRCLVFDCRLHGCSQDLIFPAEKPAPWCPPVDENLTCGANCYKTLLKSGRFPGYGTIEGKTGTSSDGAGTKTTPTKFSSKLNGRKPKTFPSESASSNEKCALETSDSENGLQQDTNSDKVSSSPKVKGSGRRVGRKRNKNRVAERVPRKTQKRQKKTEASDSDSIASGSCSPSDAKHKDNEDATSSSQKHVKSGNSGKSRKNGTPAEVSNNSVKDDVPVCQSNEVASELDAPGSDESLRKEEFMGETVSRGRLATNKLWRPLEKSLFDKGVEIFGMNSCLIARNLLSGFKSCWEVFQYMTCSENKASFFGGDGLNPDGSSKFDINGNMVNNQVRRRSRFLRRRGKVRRLKYTWKSAAYHSIRKRITEKKDQPCRQFNPCNCKIACGKECPCLLNGTCCEKYCGCPKSCKNRFRGCHCAKSQCRSRQCPCFAADRECDPDVCRNCWVIGGDGSLGVPSQRGDNYECRNMKLLLKQQQRVLLGISDVSGWGAFLKNSVSKHEYLGEYTGELISHKEADKRGKIYDRENCSFLFNLNDQFVLDAYRKGDKLKFANHSPEPNCYAKVIMVAGDHRVGIFAKERILAGEELFYDYRYEPDRAPAWAKKPEAPGSKKDENVTPSVGRPKKLA",binds
6,"VEL1 (endogenous) (protein, UniProt Q9SUM4 1-714) MDSSLDGAAGDSSKCSEMSVDEKRQLVYELSKQSHLAAEVLQAWSRQEILQILCAEMGKERKYTGLTKVKIIETLLKIVSEKNSGECEGKKRDSDCLPIQRNTKRQRKVDNPSRYVIPATNIVTSNNASGSCSSVNTKGESTTIYCKNLACRAVLRQEDSFCRRCSCCICRKYDDNKDPSLWLTCSSDPPFEGESCGFSCHLECAFNTEKSGLGKDKQSEGCCFYCVSCGKANSLLECWKKQLTIAKETRRVEVLCYRLFLVQKLLKSSTKYRNLCEVVDEAVKTLEADVGPLTGLPMKMGRGIVNRLHSGPDVQKLCSSALESLETIATTPPDVAALPSPRSSKMQQDCSYVLSNEISADTATTGSTKIRFEDVNATSLTVVLASNEIPSPPNIVHYSIWHRKVPEKDYPEKSTCTLFIPNTRFVVSGLAPASEYCFKVVSYSGTREMGVDEINVLTRSAEEGANCSSAVERSVSPLTNCSTLSSNPSSVEAESNNDYIVPKKPSSKNEDNNSPSVDESAAKRMKRTTDSDIVQIEKDVEQIVLLDDEEQEAVLDKTESETPVVVTTKSLVGNRNSSDASLPITPFRSDEIKNRQARIEISMKDNCNNGDHSANGGTESGLEHCVKIIRQLECSGHIDKNFRQKFLTWYSLRATSQEIRVVKIFIDTFIDDPMALAEQLIDTFDDRVSIKRSAVGGSGASAVVPSGFCMKLWH",binds
7,"VRN2 (PRC2 core subunit) (protein, UniProt Q8W5B1 1-440) MCRQNCRAKSSPEEVISTDENLLIYCKPVRLYNIFHLRSLGNPSFLPRCLNYKIGAKRKRKSRSTGMVVFNYKDCNNTLQRTEVREDCSCPFCSMLCGSFKGLQFHLNSSHDLFEFEFKLLEEYQTVNVSVKLNSFIFEEEGSDDDKFEPFSLCSKPRKRRQRGGRNNTRRLKVCFLPLDSPSLANGTENGIALLNDGNRGLGYPEATELAGQFEMTSNIPPAIAHSSLDAGAKVILTTEAVVPATKTRKLSAERSEARSHLLLQKRQFYHSHRVQPMALEQVMSDRDSEDEVDDDVADFEDRQMLDDFVDVNKDEKQFMHLWNSFVRKQRVIADGHISWACEVFSRFYEKELHCYSSLFWCWRLFLIKLWNHGLVDSATINNCNTILENCRNTSVTNNNNNSVDHPSDSNTNNNNIVDHPNDIKNKNNVDNKDNNSRDK",binds

# Molecular target: VIN3-GFP wild-type (pVIN3:VIN3-eGFP) (Arabidopsis thaliana) (UniProt Q9FIE3)
# Experiment: affinity purification with mass spectrometry
row,Molecule,binding
1,"VEL1 (endogenous) (protein, UniProt Q9SUM4 1-714) MDSSLDGAAGDSSKCSEMSVDEKRQLVYELSKQSHLAAEVLQAWSRQEILQILCAEMGKERKYTGLTKVKIIETLLKIVSEKNSGECEGKKRDSDCLPIQRNTKRQRKVDNPSRYVIPATNIVTSNNASGSCSSVNTKGESTTIYCKNLACRAVLRQEDSFCRRCSCCICRKYDDNKDPSLWLTCSSDPPFEGESCGFSCHLECAFNTEKSGLGKDKQSEGCCFYCVSCGKANSLLECWKKQLTIAKETRRVEVLCYRLFLVQKLLKSSTKYRNLCEVVDEAVKTLEADVGPLTGLPMKMGRGIVNRLHSGPDVQKLCSSALESLETIATTPPDVAALPSPRSSKMQQDCSYVLSNEISADTATTGSTKIRFEDVNATSLTVVLASNEIPSPPNIVHYSIWHRKVPEKDYPEKSTCTLFIPNTRFVVSGLAPASEYCFKVVSYSGTREMGVDEINVLTRSAEEGANCSSAVERSVSPLTNCSTLSSNPSSVEAESNNDYIVPKKPSSKNEDNNSPSVDESAAKRMKRTTDSDIVQIEKDVEQIVLLDDEEQEAVLDKTESETPVVVTTKSLVGNRNSSDASLPITPFRSDEIKNRQARIEISMKDNCNNGDHSANGGTESGLEHCVKIIRQLECSGHIDKNFRQKFLTWYSLRATSQEIRVVKIFIDTFIDDPMALAEQLIDTFDDRVSIKRSAVGGSGASAVVPSGFCMKLWH",binds
2,"VRN5 (endogenous) (protein, UniProt Q9LHF5 1-602) MDSSSTKSKISHSRKTNKKSNKKHESNGKQQQQQDVDGGGGCLRSSWICKNASCRANVPKEDSFCKRCSCCVCHNFDENKDPSLWLVCEPEKSDDVEFCGLSCHIECAFREVKVGVIALGNLMKLDGCFCCYSCGKVSQILGCWKKQLVAAKEARRRDGLCYRIDLGYRLLNGTSRFSELHEIVRAAKSMLEDEVGPLDGPTARTDRGIVSRLPVAANVQELCTSAIKKAGELSANAGRDLVPAACRFHFEDIAPKQVTLRLIELPSAVEYDVKGYKLWYFKKGEMPEDDLFVDCSRTERRMVISDLEPCTEYTFRVVSYTEAGIFGHSNAMCFTKSVEILKPVDGKEKRTIDLVGNAQPSDREEKSSISSRFQIGQLGKYVQLAEAQEEGLLEAFYNVDTEKICEPPEEELPPRRPHGFDLNVVSVPDLNEEFTPPDSSGGEDNGVPLNSLAEADGGDHDDNCDDAVSNGRRKNNNDCLVISDGSGDDTGFDFLMTRKRKAISDSNDSENHECDSSSIDDTLEKCVKVIRWLEREGHIKTTFRVRFLTWFSMSSTAQEQSVVSTFVQTLEDDPGSLAGQLVDAFTDVVSTKRPNNGVMTSH",binds

# Source: doi:10.1101/2024.02.15.580496 (bioRxiv, 2024)
